Measured values published in US20140024620A1, “Methods for Inhibiting Cell Proliferation in EGFR-Driven Cancers” (ARIAD PHARMACEUTICALS, INC., priority 2010, published 2014).
At least one compound was matched to its structure with a doubt left.

Legend:
[1] = test system: NIH3T3 cells expressing EGFR-Del/T790M; assay: tumor model using NIH3T3 cells expressing EGFR-Del/T790M; type: in vivo, mice
[2] = test system: Ba/F3 cells expressing EGFR-Del/T790M; assay: tumor model using Ba/F3 cells expressing EGFR-Del/T790M; type: in vivo, mice; settings: daily oral dosing with 75 mg/kg

Which “antitumor and anti-EGFR activity” value [1] does the source give for `COc1cc(N2CCC(N3CCN(C)CC3)CC2)ccc1Nc1ncc(Cl)c(Nc2ccccc2P(C)(C)=O)n1` [AP26113] here?
The value was “Antitumor and anti-EGFR activity was also seen”.

And the tumor regression [2]?
Its tumor regression is “induced tumor regression”.
